For at least one entry, the source does not settle the construct or the ends of the probe. Results from cells or extracts need not show a direct contact. For part of these data: Tags and fusion partners may be left off the protein sequences shown.

Protein sequences, listed by entry. Tags and fused reporters are not part of them. Lines headed by an entry give the natural chain unless they say otherwise; changes in a name come on top. Residues count along the entry.
UniProt P26599: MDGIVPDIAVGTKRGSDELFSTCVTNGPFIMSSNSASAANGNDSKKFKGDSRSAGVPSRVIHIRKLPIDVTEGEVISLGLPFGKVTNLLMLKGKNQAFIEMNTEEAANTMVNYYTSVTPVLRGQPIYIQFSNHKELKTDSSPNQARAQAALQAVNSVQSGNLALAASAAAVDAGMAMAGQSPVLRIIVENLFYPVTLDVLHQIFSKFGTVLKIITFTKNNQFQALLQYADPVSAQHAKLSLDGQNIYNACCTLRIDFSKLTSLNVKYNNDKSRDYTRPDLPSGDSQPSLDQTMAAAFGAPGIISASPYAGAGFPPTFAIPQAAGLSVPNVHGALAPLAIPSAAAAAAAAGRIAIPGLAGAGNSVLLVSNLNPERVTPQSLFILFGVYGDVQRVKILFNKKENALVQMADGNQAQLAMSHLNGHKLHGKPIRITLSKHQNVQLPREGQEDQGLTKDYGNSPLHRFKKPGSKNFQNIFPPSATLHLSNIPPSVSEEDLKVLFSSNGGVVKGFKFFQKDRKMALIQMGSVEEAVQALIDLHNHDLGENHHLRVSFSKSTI
UniProt Q07955, 2-248: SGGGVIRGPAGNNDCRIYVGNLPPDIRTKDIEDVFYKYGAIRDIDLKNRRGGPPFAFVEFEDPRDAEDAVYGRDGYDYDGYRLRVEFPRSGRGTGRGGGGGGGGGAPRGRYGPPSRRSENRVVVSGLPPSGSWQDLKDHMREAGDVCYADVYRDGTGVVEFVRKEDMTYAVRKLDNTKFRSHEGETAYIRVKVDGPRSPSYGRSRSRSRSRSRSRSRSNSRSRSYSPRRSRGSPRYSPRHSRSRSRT

What all share (test): pull-down
For one data set, the target named is PTBP1 (Homo sapiens) (UniProt P26599). The following applies: 2'-OMe; nuclear extract, streptavidin beads blocked with heparin, western blot; protein in an extract; protein details: HEK293 nuclear extract; label: biotin. A general note: In western blotting, separated proteins are transferred to a membrane and probed.
The next data set has as its target T1, RBFOX2 (UniProt O43251).
T1 sequence (looked up, limits assumed): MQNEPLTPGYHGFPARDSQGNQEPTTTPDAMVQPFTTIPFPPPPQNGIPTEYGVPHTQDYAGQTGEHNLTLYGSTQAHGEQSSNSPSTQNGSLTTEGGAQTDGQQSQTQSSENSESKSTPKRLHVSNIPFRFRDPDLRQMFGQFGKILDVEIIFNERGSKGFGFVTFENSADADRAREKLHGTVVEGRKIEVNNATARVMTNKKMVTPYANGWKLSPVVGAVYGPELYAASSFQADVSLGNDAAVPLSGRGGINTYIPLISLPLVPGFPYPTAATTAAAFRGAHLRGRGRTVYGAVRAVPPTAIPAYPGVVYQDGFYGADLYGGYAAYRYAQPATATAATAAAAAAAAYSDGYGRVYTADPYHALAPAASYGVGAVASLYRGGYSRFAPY
The settings on record: 2'-OMe; nuclear extract, streptavidin beads blocked with heparin, western blot; protein in an extract; protein details: overexpressed in HEK293 nuclear extract; label: biotin.

For the next data set, the target named is SRSF1 (SF2/ASF) (UniProt Q07955). The settings on record: 2'-OMe; nuclear extract, streptavidin beads blocked with heparin, western blot; repeat number of the pulldown oligo not stated (three/four), n=3 sequence given; protein in an extract; protein details: overexpressed in HEK293 nuclear extract; label: biotin.

In the case of “CUCUCUCUCUCUCUCUCUCUCUCU [PTBP1i (PTBP1 INHIB1X4)]”, in the data set with PTBP1 (Homo sapiens), the binding result is given as “binds”.

For the sequence “UGCAUGUGCAUGUGCAUGUGCAUG [RBFOXi (RBFOX1/2 decoy, 4 repeats)]”, the binding result with RBFOX2 is “binds”.

“CGCAGGACGCAGGACGCAGGA [SF2i2 (SRSF1 decoy, CGCAGGA repeats)]”: the binding result in the data set with SRSF1 (SF2/ASF) is on record as “binds”.
